Holding throughout (experiment): affinity purification with mass spectrometry; HA-tagged PRRC2B isoform or HA-mCherry control transfected 24 h in HEK 293T; lysis in buffer B (20 mM HEPES-KOH pH 7.6, 100 mM KCl, 0.5 mM EDTA, 0.4% NP-40, 20% glycerol); anti-HA beads 2 h at 4°C; eluates by LC-MS; hits: at least 2 peptides, >2-fold over mCherry IP, FDR < 0.05
The target in experiment [1] is PRRC2B-long (PRRC2BL), HA-tagged (human) (UniProt Q5JSZ5).
Experiment [2] concerns the target PRRC2B-short (PRRC2BS), HA-tagged (human).
Experiment [3] has as its target PRRC2B-long (PRRC2BL), HA-tagged (human) (UniProt Q5JSZ5). This is another data set of the same source.

Sequences of proteins named here, by UniProt entry; tags and fusion partners are left off.
UniProt Q5JSZ5: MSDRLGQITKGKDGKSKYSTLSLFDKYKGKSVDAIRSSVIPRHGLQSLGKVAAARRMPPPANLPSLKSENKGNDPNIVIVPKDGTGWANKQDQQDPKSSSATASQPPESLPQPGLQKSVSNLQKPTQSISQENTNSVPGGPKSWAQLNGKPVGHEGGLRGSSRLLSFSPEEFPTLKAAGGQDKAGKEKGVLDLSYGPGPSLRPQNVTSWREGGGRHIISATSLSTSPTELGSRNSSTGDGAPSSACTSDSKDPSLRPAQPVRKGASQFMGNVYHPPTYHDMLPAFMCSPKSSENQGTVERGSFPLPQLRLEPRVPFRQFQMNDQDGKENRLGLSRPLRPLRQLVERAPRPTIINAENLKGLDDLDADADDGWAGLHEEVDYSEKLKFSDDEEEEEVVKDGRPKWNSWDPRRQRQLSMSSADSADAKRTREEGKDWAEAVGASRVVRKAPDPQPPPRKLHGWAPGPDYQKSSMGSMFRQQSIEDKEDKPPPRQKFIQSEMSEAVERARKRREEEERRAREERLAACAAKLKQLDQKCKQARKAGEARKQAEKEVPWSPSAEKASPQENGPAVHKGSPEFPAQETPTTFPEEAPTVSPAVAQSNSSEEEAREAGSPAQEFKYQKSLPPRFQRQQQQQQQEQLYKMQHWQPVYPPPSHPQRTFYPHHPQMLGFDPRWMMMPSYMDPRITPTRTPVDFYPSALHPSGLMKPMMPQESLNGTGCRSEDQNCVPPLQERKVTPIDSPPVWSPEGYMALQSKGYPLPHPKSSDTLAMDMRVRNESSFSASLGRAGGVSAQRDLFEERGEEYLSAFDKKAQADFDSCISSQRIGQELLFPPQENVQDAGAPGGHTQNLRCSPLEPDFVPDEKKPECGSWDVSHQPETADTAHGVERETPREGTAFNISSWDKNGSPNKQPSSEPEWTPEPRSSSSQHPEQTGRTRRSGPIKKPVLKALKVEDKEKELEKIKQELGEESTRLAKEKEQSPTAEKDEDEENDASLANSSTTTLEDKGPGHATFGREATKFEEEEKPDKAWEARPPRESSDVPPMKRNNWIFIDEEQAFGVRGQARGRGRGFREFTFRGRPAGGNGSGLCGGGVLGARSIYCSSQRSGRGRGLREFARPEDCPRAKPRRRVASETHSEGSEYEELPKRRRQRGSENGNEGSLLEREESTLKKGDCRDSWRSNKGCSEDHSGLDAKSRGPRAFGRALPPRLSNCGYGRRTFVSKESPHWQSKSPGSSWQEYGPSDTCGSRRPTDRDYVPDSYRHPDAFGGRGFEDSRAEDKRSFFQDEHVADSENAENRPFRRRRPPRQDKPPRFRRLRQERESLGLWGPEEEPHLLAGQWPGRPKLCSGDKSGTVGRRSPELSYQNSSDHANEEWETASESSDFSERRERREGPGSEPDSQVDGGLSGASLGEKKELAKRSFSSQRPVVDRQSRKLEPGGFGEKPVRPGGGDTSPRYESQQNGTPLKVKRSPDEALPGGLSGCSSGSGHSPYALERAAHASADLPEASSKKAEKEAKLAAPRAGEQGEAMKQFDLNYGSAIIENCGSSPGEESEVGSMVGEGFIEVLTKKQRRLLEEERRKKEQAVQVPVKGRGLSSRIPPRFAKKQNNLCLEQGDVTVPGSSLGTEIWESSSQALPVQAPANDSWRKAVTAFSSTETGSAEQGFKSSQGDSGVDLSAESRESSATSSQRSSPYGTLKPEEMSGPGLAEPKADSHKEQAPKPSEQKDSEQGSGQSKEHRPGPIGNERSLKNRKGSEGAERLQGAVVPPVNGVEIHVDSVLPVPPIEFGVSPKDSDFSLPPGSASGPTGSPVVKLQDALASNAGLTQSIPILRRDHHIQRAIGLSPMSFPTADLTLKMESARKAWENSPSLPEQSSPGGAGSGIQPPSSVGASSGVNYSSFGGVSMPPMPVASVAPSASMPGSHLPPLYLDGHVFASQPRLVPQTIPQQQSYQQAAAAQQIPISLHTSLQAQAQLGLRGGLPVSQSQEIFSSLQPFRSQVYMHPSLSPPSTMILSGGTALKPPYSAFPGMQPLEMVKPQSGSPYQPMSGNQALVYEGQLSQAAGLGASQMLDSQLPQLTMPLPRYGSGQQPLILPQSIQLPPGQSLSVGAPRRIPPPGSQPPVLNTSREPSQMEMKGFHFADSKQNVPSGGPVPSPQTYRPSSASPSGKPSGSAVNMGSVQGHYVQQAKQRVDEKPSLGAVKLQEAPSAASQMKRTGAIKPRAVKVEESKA
UniProt Q71RC2: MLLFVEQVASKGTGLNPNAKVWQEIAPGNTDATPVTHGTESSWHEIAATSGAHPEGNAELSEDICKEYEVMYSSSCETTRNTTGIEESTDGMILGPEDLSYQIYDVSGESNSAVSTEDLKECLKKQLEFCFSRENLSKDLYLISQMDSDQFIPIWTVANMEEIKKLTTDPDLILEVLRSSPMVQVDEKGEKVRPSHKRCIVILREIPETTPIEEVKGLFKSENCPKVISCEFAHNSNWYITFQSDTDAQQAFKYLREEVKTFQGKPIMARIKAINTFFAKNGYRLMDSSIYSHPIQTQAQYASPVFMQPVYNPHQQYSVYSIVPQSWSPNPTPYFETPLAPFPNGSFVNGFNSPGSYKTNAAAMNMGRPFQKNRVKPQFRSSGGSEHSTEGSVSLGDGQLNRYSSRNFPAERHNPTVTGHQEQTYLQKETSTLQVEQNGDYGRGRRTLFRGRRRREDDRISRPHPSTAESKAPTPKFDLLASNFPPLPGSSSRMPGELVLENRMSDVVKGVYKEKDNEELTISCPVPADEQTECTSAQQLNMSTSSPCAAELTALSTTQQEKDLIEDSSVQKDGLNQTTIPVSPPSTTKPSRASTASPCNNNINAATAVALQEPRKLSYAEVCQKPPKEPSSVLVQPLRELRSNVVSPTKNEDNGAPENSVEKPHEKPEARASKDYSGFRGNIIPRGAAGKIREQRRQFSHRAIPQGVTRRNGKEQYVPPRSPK
UniProt O14744: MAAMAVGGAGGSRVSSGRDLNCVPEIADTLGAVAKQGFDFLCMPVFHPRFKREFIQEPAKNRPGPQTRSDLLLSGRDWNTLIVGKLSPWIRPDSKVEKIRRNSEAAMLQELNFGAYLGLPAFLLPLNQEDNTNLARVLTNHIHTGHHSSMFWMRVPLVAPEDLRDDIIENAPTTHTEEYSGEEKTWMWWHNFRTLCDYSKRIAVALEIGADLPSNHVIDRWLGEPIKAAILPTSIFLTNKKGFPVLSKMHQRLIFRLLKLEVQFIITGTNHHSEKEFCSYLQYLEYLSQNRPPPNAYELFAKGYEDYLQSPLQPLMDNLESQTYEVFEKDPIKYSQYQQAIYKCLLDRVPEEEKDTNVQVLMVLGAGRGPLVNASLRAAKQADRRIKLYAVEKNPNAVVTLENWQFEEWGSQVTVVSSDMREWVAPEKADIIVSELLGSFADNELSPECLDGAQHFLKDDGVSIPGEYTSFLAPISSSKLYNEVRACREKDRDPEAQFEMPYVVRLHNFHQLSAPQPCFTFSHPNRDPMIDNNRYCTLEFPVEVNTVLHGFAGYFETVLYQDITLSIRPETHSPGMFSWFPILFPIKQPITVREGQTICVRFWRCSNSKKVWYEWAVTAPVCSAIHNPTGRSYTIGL
UniProt Q92615: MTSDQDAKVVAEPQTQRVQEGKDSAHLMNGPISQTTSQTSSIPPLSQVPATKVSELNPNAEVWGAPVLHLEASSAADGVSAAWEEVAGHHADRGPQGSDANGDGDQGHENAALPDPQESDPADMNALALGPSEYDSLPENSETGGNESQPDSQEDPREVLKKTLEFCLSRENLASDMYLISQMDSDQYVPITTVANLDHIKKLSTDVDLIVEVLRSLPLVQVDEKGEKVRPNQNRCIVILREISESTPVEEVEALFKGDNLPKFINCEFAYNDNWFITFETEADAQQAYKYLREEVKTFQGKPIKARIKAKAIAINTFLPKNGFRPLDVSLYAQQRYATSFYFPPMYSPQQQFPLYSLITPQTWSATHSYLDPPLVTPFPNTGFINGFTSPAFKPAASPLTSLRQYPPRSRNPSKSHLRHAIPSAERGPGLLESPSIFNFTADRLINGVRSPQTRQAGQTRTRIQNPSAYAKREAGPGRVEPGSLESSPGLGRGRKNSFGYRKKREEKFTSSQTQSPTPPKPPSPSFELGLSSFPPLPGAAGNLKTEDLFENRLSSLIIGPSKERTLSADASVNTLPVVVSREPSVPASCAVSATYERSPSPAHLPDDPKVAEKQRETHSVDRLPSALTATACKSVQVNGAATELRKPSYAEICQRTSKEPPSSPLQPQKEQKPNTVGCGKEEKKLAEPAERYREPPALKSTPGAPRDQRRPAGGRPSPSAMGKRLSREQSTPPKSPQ
UniProt P11940: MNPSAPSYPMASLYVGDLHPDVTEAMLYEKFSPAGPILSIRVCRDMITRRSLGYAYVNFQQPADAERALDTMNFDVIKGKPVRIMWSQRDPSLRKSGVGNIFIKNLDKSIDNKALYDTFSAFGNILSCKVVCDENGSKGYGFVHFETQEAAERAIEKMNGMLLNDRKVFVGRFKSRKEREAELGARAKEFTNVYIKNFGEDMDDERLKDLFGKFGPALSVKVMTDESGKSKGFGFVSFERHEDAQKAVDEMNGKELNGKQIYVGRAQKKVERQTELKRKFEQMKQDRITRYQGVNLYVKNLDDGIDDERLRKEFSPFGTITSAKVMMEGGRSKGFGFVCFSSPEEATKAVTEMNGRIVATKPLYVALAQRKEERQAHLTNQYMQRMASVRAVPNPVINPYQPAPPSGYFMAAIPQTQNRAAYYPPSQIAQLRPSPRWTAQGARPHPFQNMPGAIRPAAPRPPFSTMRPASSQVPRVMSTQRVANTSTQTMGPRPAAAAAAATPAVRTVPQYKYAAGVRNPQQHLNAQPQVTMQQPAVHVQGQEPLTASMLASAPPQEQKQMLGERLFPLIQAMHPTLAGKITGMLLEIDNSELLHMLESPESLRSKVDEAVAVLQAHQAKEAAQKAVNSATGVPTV
UniProt P78344: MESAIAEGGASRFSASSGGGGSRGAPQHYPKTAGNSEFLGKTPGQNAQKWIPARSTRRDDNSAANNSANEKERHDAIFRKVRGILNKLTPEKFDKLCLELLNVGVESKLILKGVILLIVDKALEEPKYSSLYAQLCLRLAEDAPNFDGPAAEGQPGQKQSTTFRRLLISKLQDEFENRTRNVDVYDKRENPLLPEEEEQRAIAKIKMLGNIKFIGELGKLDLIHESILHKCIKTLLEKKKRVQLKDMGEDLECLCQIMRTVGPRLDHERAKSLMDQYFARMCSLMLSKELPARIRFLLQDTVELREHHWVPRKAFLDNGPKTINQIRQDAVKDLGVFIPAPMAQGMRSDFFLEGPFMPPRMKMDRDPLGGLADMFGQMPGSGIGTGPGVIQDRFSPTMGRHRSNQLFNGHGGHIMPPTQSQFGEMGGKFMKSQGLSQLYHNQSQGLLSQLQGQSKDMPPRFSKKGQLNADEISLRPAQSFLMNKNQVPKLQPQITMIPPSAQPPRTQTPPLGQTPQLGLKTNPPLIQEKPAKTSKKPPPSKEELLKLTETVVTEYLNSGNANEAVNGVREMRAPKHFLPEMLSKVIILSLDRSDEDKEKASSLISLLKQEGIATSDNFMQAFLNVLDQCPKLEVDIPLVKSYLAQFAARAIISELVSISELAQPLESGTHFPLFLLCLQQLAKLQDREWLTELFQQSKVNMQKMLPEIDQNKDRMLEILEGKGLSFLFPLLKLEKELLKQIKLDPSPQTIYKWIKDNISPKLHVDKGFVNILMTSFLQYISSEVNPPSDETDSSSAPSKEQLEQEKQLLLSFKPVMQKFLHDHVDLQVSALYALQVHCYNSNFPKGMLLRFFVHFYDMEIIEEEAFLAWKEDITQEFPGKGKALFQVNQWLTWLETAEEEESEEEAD
UniProt Q99873: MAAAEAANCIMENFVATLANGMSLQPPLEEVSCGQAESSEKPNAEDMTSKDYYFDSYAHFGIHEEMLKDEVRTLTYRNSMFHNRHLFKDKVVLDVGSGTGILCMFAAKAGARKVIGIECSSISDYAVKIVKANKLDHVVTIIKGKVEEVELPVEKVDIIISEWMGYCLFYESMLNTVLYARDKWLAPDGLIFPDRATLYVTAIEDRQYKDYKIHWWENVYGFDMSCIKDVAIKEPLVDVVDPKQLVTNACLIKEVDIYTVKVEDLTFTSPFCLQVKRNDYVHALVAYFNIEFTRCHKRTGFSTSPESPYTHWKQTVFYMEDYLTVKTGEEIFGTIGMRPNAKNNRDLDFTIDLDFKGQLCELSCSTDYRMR

Where two headings read alike, the source gives them in different places. These are yes or no findings as the source states them, for the method shown. In cells and extracts the contact can be indirect. Here binding means that the protein was enriched with, or labelled near, the bait; the list need not be complete. For some assays here: No binding means not detected with the bait.

For LARP4 (from UniProt Q71RC2 1-724), in experiment [1], the binding result is listed as “binds”.

For the molecule “PRMT5 (from UniProt O14744 1-637) (enzyme)”, the binding result in experiment [1] was “binds”.

In the case of G3BP1 (from UniProt Q13283 1-466), in experiment [1], the binding entry is given as “binds”.

As for LARP4B (from UniProt Q92615 1-738), the binding result in experiment [1] is recorded as “binds”.

Take PABPC1 (from UniProt P11940 1-636): the binding result in experiment [1] was “binds”.

For the molecule EIF4G2 (from UniProt P78344 1-907), the binding result in experiment [1] is “binds”.

As to “PRMT1 (from UniProt Q99873 1-371) (enzyme)”, in experiment [1], the binding result is given as “binds”.

B1: DHX29 (enzyme, UniProt Q7Z478 1-1369)
chain: MGGKNKKHKAPAAAVVRAAVSASRAKSAEAGIAGEAQSKKPVSRPATAAAAAAGSREPRVKQGPKIYSFNSTNDSSGPANLDKSILKVVINNKLEQRIIGVINEHKKQNNDKGMISGRLTAKKLQDLYMALQAFSFKTKDIEDAMTNTLLYGGDLHSALDWLCLNLSDDALPEGFSQEFEEQQPKSRPKFQSPQIQATISPPLQPKTKTYEEDPKSKPKKEEKNMEVNMKEWILRYAEQQNEEEKNENSKSLEEEEKFDPNERYLHLAAKLLDAKEQAATFKLEKNKQGQKEAQEKIRKFQREMETLEDHPVFNPAMKISHQQNERKKPPVATEGESALNFNLFEKSAAATEEEKDKKKEPHDVRNFDYTARSWTGKSPKQFLIDWVRKNLPKSPNPSFEKVPVGRYWKCRVRVIKSEDDVLVVCPTILTEDGMQAQHLGATLALYRLVKGQSVHQLLPPTYRDVWLEWSDAEKKREELNKMETNKPRDLFIAKLLNKLKQQQQQQQQHSENKRENSEDPEESWENLVSDEDFSALSLESANVEDLEPVRNLFRKLQSTPKYQKLLKERQQLPVFKHRDSIVETLKRHRVVVVAGETGSGKSTQVPHFLLEDLLLNEWEASKCNIVCTQPRRISAVSLANRVCDELGCENGPGGRNSLCGYQIRMESRACESTRLLYCTTGVLLRKLQEDGLLSNVSHVIVDEVHERSVQSDFLLIILKEILQKRSDLHLILMSATVDSEKFSTYFTHCPILRISGRSYPVEVFHLEDIIEETGFVLEKDSEYCQKFLEEEEEVTINVTSKAGGIKKYQEYIPVQTGAHADLNPFYQKYSSRTQHAILYMNPHKINLDLILELLAYLDKSPQFRNIEGAVLIFLPGLAHIQQLYDLLSNDRRFYSERYKVIALHSILSTQDQAAAFTLPPPGVRKIVLATNIAETGITIPDVVFVIDTGRTKENKYHESSQMSSLVETFVSKASALQRQGRAGRVRDGFCFRMYTRERFEGFMDYSVPEILRVPLEELCLHIMKCNLGSPEDFLSKALDPPQLQVISNAMNLLRKIGACELNEPKLTPLGQHLAALPVNVKIGKMLIFGAIFGCLDPVATLAAVMTEKSPFTTPIGRKDEADLAKSALAMADSDHLTIYNAYLGWKKARQEGGYRSEITYCRRNFLNRTSLLTLEDVKQELIKLVKAAGFSSSTTSTSWEGNRASQTLSFQEIALLKAVLVAGLYDNVGKIIYTKSVDVTEKLACIVETAQGKAQVHPSSVNRDLQTHGWLLYQEKIRYARVYLRETTLITPFPVLLFGGDIEVQHRERLLSIDGWIYFQAPVKIAVIFKQLRVLIDSVLRKKLENPKMSLENDKILQIITELIKTENN
Take B1: the binding result in experiment [2] and in experiment [3] was “binds” each time.

B2: G3BP2 (protein, UniProt Q9UN86 1-482)
chain: MVMEKPSPLLVGREFVRQYYTLLNKAPEYLHRFYGRNSSYVHGGVDASGKPQEAVYGQNDIHHKVLSLNFSECHTKIRHVDAHATLSDGVVVQVMGLLSNSGQPERKFMQTFVLAPEGSVPNKFYVHNDMFRYEDEVFGDSEPELDEESEDEVEEEQEERQPSPEPVQENANSGYYEAHPVTNGIEEPLEESSHEPEPEPESETKTEELKPQVEEKNLEELEEKSTTPPPAEPVSLPQEPPKAFSWASVTSKNLPPSGTVSSSGIPPHVKAPVSQPRVEAKPEVQSQPPRVREQRPRERPGFPPRGPRPGRGDMEQNDSDNRRIIRYPDSHQLFVGNLPHDIDENELKEFFMSFGNVVELRINTKGVGGKLPNFGFVVFDDSEPVQRILIAKPIMFRGEVRLNVEEKKTRAARERETRGGGDDRRDIRRNDRGPGGPRGIVGGGMMRDRDGRGPPPRGGMAQKLGSGRGTGQMEGRFTGQRR
In the case of B2, the figures for the binding entry in experiment [2] and in experiment [3] were “no binding” and “binds”, respectively.

The record behind these values is PMC12700102.
